Measurements reported in PubChem BioAssay AID504764 (Drosophila RNAi Screening Center, 2011)
In all, the deposit lists about 22,000 reagents; shown is an unselected part of those that have a named target and a result. Over the whole deposit, 403 (1.9%) are marked active. 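Unnormalised raw counts per well; ratio z-scores behind the hit calls and whether each hit raises or lowers signal are not deposited.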 Not stated in the record: the amount of reagent.

- Assay: 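Knock-downs that raise or lower a Notch target reporter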 (primary screen)
- Cells: Drosophila Kc167 cells
- Knock-down reagent: long dsRNA against Drosophila genes
- Time to read-out: about 5 days (4 days dsRNA, then 24 h after transfection)
- Treatment: transfection of constitutively active membrane-tethered Notch lacking the extracellular domain, read 24 h later
- Measured: 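Firefly luciferase from an E(spl)m3 reporter with active Notch, plus control-promoter and uninduced reporter wells for normalisation; unnormalised counts, duplicate wells a and b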
- Scale: induced reporter light, run 1, well a and induced reporter light, run 1, well b: higher = more light from the Notch target reporter with active Notch; control promoter light, run 1, well a and control promoter light, run 1, well b: higher = more light from the viral control promoter (cell number, transfection, viability); uninduced reporter light, run 1, well a: higher = more light from the Notch target reporter without active Notch
- Call rule: 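Hit if the duplicate-averaged log2 ratio of induced to control-promoter light gives a plate-wise z beyond ±2, or induced to uninduced beyond ±1.8; weak-control or discordant-duplicate wells dropped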
- Calls: active = modifier hit (raised or lowered Notch signal); inactive = not a hit

Ance (Angiotensin converting enzyme) [DRSC01865] scored induced reporter light, run 1, well a = 2.12e5; induced reporter light, run 1, well b = 2.10e5; control promoter light, run 1, well a = 2.11e5; control promoter light, run 1, well b = 2.20e5; uninduced reporter light, run 1, well a = 17355; inactive.
Knock-down of Sfxn2 (Sideroflexin 2) [DRSC10718] came out at: induced reporter light, run 1, well a = 1.42e5; induced reporter light, run 1, well b = 1.52e5; control promoter light, run 1, well a = 1.29e5; control promoter light, run 1, well b = 1.19e5; uninduced reporter light, run 1, well a = 7915; inactive.
Against List (Lithium-inducible SLC6 transporter) [DRSC06520], the entry reads induced reporter light, run 1, well a = 45900; induced reporter light, run 1, well b = 37890; control promoter light, run 1, well a = 34015; control promoter light, run 1, well b = 46490; uninduced reporter light, run 1, well a = 4338; inactive.
Against Lapsyn (Leucine-rich repeat activity-regulated protein at synapses) [DRSC04249] the deposit lists induced reporter light, run 1, well a = 2.26e5; induced reporter light, run 1, well b = 2.34e5; control promoter light, run 1, well a = 2.07e5; control promoter light, run 1, well b = 2.11e5; uninduced reporter light, run 1, well a = 16900; inactive.
After knock-down of Lamp1 [DRSC03727], the record shows induced reporter light, run 1, well a = 52340; induced reporter light, run 1, well b = 42460; control promoter light, run 1, well a = 41825; control promoter light, run 1, well b = 55070; uninduced reporter light, run 1, well a = 3290; inactive.
With knock-down of CG15745 (retired record) [DRSC19711], the record shows induced reporter light, run 1, well a = 1.17e5; induced reporter light, run 1, well b = 1.37e5; control promoter light, run 1, well a = 2.03e5; control promoter light, run 1, well b = 1.81e5; uninduced reporter light, run 1, well a = 8395; inactive.
Silencing of CG10081 [DRSC05962] resulted in: induced reporter light, run 1, well a = 26530; induced reporter light, run 1, well b = 29040; control promoter light, run 1, well a = 40495; control promoter light, run 1, well b = 43590; uninduced reporter light, run 1, well a = 2790; inactive.
Hsp68 (Heat shock protein 68) [DRSC16712] showed induced reporter light, run 1, well a = 2.16e5; induced reporter light, run 1, well b = 2.08e5; control promoter light, run 1, well a = 2.18e5; control promoter light, run 1, well b = 2.54e5; uninduced reporter light, run 1, well a = 16070; inactive.

A portion taken from the entries so far, for reference:
Sfxn2 (Sideroflexin 2) [DRSC10718]: induced reporter light, run 1, well a = 1.42e5; induced reporter light, run 1, well b = 1.52e5; control promoter light, run 1, well a = 1.29e5; control promoter light, run 1, well b = 1.19e5; uninduced reporter light, run 1, well a = 7915; call = inactive
List (Lithium-inducible SLC6 transporter) [DRSC06520]: induced reporter light, run 1, well a = 45900; induced reporter light, run 1, well b = 37890; control promoter light, run 1, well a = 34015; control promoter light, run 1, well b = 46490; uninduced reporter light, run 1, well a = 4338; call = inactive

Next results follow:
After knock-down of GC (gamma-glutamyl carboxylase) [DRSC08396], the screen gave induced reporter light, run 1, well a = 1.09e5; induced reporter light, run 1, well b = 95685; control promoter light, run 1, well a = 1.43e5; control promoter light, run 1, well b = 1.72e5; uninduced reporter light, run 1, well a = 7060; inactive.
For Drep2 (DNA fragmentation factor-related protein 2) [DRSC07528] the deposit lists induced reporter light, run 1, well a = 1.40e5; induced reporter light, run 1, well b = 1.84e5; control promoter light, run 1, well a = 1.17e5; control promoter light, run 1, well b = 1.08e5; uninduced reporter light, run 1, well a = 11795; inactive.
With knock-down of CG34334 [DRSC20643], the record shows induced reporter light, run 1, well a = 1.00e5; induced reporter light, run 1, well b = 1.07e5; control promoter light, run 1, well a = 1.02e5; control promoter light, run 1, well b = 1.06e5; uninduced reporter light, run 1, well a = 10275; inactive.
CG4360 [DRSC15566] scored induced reporter light, run 1, well a = 2.01e5; induced reporter light, run 1, well b = 1.77e5; control promoter light, run 1, well a = 2.31e5; control promoter light, run 1, well b = 2.30e5; uninduced reporter light, run 1, well a = 14095; inactive.
